Measured values from publication doi:10.1101/2020.02.18.953711 (bioRxiv, 2020).
Results are given in words; binding and its absence hold for the method and conditions named. Some entries that bind do so weakly or less than the wild type. Tags and fused reporters may be left off the sequences shown.

Molecular target: T1, C-terminally encoded peptide receptor 2 (CEPR2), MbSUS fusion (Arabidopsis thaliana) (UniProt Q9C7T7)
T1 sequence: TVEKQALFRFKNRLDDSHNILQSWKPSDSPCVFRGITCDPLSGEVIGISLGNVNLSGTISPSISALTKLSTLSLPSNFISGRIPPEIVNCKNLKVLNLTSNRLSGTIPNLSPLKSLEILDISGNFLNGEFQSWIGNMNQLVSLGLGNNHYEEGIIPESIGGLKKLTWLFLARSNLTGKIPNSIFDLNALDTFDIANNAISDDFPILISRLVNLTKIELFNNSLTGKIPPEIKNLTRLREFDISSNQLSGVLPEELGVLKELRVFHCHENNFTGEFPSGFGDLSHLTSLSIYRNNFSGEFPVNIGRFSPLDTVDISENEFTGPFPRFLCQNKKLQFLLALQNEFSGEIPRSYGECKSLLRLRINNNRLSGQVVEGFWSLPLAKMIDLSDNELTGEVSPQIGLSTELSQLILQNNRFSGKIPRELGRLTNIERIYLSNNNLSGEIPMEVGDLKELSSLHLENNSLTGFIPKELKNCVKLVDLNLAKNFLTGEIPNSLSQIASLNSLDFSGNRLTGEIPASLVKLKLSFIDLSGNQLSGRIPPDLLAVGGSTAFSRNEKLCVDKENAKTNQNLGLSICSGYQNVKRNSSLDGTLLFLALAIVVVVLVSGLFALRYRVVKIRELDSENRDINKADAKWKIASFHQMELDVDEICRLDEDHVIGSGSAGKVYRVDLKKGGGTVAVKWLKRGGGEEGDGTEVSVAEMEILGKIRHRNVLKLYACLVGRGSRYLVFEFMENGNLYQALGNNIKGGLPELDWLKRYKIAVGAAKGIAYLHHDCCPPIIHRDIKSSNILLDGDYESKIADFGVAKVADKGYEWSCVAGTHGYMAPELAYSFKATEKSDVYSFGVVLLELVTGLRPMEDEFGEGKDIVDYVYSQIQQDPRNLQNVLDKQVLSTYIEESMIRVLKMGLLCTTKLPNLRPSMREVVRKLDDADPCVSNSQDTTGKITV
Experiment: two-hybrid

Row | Binder | binding
1 | NRT1.2 (NPF4.6, AIT1), MbSUS fusion (protein, UniProt Q8H157 1-585) MEVEEEVSRWEGYADWRNRAAVKGRHGGMLAASFVLVVEILENLAYLANASNLVLYLREYMHMSPSKSANDVTNFMGTAFLLALLGGFLSDAFFSTFQIFLISASIEFLGLIILTIQARTPSLMPPSCDSPTCEEVSGSKAAMLFVGLYLVALGVGGIKGSLASHGAEQFDESTPKGRKQRSTFFNYFVFCLACGALVAVTFVVWLEDNKGWEWGFGVSTIAIFVSILIFLSGSRFYRNKIPCGSPLTTILKVLLAASVKCCSSGSSSNAVASMSVSPSNHCVSKGKKEVESQGELEKPRQEEALPPRAQLTNSLKVLNGAADEKPVHRLLECTVQQVEDVKIVLKMLPIFACTIMLNCCLAQLSTFSVQQAASMNTKIGSLKIPPASLPIFPVVFIMILAPIYDHLIIPFARKATKTETGVTHLQRIGVGLVLSILAMAVAALVEIKRKGVAKDSGLLDSKETLPVTFLWIALQYLFLGSADLFTLAGLLEYFFTEAPSSMRSLATSLSWASLAMGYYLSSVIVSIVNSITGSSGNTPWLRGKSINRYKLDYFYWLMCVLSAANFLHYLFWAMRYKYRSTGSRS | binds
2 | ABA importer 2 (AIT2), MbSUS fusion (protein, UniProt Q8VYE4 1-567) MEVEMHGDVSKWEGYADWRNKAALRGRHGGMLAASFVLAVEILENLAFLANASNLVLYLKNFMHMSLARSSSEVTTFMATAFLLALLGGFLADAFFSTFVIFLISASIEFLGLILLTIQARRPSLMPPPCKSSAALRCEVVGGSKAAFLFVGLYLVSLGIGGIKGSLPSHGAEQFDEGTPKGRKQRSTFFNYYVFCLSCGALVAVTFVVWIEDNKGWEWGFGVSTISIFLSILVFLLGSRFYKNKIPRGSPLTTIFKVLLAASIVSCSSKTSSNHFTSREVQSEHEEKTPSQSLTNSLTCLNKAIEGKTHHIWLECTVQQVEDVKIVLKMLPIFGCTIMLNCCLAQLSTYSVHQAATMNRKIVNFNVPSASLPVFPVVFMLILAPTYDHLIIPFARKVTKSEIGITHLQRIGVGLVLSIVAMAVAALVELKRKQVAREAGLLDSEETLPITFLWIALQYLFLGSADLFTLAGLLEFFFTEAPSSMRSLATSLSWASLALGYYLSSVMVPIVNRVTKSAGQSPWLGEKLNRNRLDLFYWLMCVLSVVNFLHYLFWAKRYKYISTGSIS | no binding
3 | ABA importer 3 (AIT3), MbSUS fusion (protein, UniProt Q9LSF0 1-515) MQIEMEEKFEDWRGKEAISGKHGGIKAAFIACVVETMENMVFLACSTNFMMYFTKSMNYSTPKAATMVTNFVGTSFLLTIFGGFVADSFLTRFAAFVLFGSIELLGLIMLTLQAHITKLQPQGGKKPSTPQSTVLFTGLYAIAIGVGGVKGSLPAHGGDQIGTRNQRLISGFFNWYFFSVCLGGFLAVTLMVWIEENIGWSSSFTISTAVLASAIFVFVAGCPMYRFKRPAGSPLTRIVNVFVSAARNRNRFVTDAEVVTQNHNSTDKSIHHNKFKFLNKAKLNNKISATQVEETRTFLALLPIFGSTIIMNCCVAQMGTFSVQQGMVTNRKLSRSFEIPVASLNAIPLLCMLSSLALYELFGKRILSNSERSSSFNLKRIGYGLALTSISMAVAAIVEVKRKHEAVHNNIKISVFWLELQFVMLSLSDMLTVGGMLEFFFRESPASMRSMSTALGWCSTAMGFFLSSVLVEVVNGITGWLRDDLNESRLELFYLVLCVLNTLNLFNYIFWAKRY | no binding
4 | ABA importer 4 (AIT4), MbSUS fusion (protein, UniProt Q9LSE8 1-521) MENDMEEKFEDWKGKEAIPGKHGGIRAASIVCVVVMMENIVFIANGFNFVKYFMGSMHYTPATAANMVTNFMGTSFLLTLFGGFIADSFVTHFTTFIVFCCIELMGLILLTFQAHNPKLLPEKDKTPSTLQSAILFTGLYAMAIGTGGLKASLPSHGGDQIDRRNPRLISRFFDWLYFSICSGCLLAVTVVLWIEEKKGWIWSFNISVGILATALCIFTVGLPFYRFKRPNGSPLKKIAIVIISAARNRNKSDLDEEMMRGLISIYKNNSHNKLKWIDKATLNKNISETEVEETRTFLGLLPIFGSTIVMSCCVAQLSTFSAQQGMLMNKKLFHSFEIPVPSLTAIPLIFMLLSIPLYEFFGKKISSGNNNRSSSFNLKRIGLGLALSSVSMAVSAIVEAKRKHEVVHNNFRISVLWLVFQYLMLSVSDMLTLGGMLEFFYREAPSNMKSISTALGWCSTALGFFLSTTLVEVTNAVTGRLGHQWLGGEDLNKTRLELFYVLLCVLNTLNLLNYIFWAKRY | no binding
5 | ABC transporter G25 (ABCG25), MbSUS fusion (protein, UniProt Q84TH5 1-662) MSAFDGVENQMNGPDSSPRLSQDPREPRSLLSSSCFPITLKFVDVCYRVKIHGMSNDSCNIKKLLGLKQKPSDETRSTEERTILSGVTGMISPGEFMAVLGPSGSGKSTLLNAVAGRLHGSNLTGKILINDGKITKQTLKRTGFVAQDDLLYPHLTVRETLVFVALLRLPRSLTRDVKLRAAESVISELGLTKCENTVVGNTFIRGISGGERKRVSIAHELLINPSLLVLDEPTSGLDATAALRLVQTLAGLAHGKGKTVVTSIHQPSSRVFQMFDTVLLLSEGKCLFVGKGRDAMAYFESVGFSPAFPMNPADFLLDLANGVCQTDGVTEREKPNVRQTLVTAYDTLLAPQVKTCIEVSHFPQDNARFVKTRVNGGGITTCIATWFSQLCILLHRLLKERRHESFDLLRIFQVVAASILCGLMWWHSDYRDVHDRLGLLFFISIFWGVLPSFNAVFTFPQERAIFTRERASGMYTLSSYFMAHVLGSLSMELVLPASFLTFTYWMVYLRPGIVPFLLTLSVLLLYVLASQGLGLALGAAIMDAKKASTIVTVTMLAFVLTGGYYVNKVPSGMVWMKYVSTTFYCYRLLVAIQYGSGEEILRMLGCDSKGKQGASAATSAGCRFVEEEVIGDVGMWTSVGVLFLMFFGYRVLAYLALRRIKH | no binding
6 | ABCG30, MbSUS fusion (protein, UniProt Q8GZ52 1-1400) MIQTGEEDEEKATSLEVEFASGNGVDDEEELRLQWATVERLPTFKRVTTALLARDEVSGKGRVIDVTRLEGAERRLLIEMLVKQIEDDNLRLLRKIRKRIDKVGIELPTVEVRFNNLSVEAECQVIHGKPIPTLWNTIKGLLSEFICSKKETKIGILKGVSGIVRPGRMTLLLGPPGCGKTTLLQALSGKFSDSVKVGGEVCYNGCSLSEFIPEKTSSYISQNDLHIPELSVRETLDFSACCQGIGSRMEIMKEISRMEKLQEIIPDPAVDAYMKATSVEGLKNNLQTDYILKILGLDICADTRVGDATRPGISGGEKRRLTTGELVVGPATTLFMDEISNGLDSSTTFQIVSCLQQLAHIAEATILISLLQPAPETFELFDDVILMGEGKIIYHAPRADICRFFEEFGFKCPERKGVADFLQEIMSKKDQEQYWCHRDKPYSYISVDSFINKFKESNLGLLLKEELSKPFNKSQTRKDGLCYKKYSLGKWEMLKACSRREFLLMKRNSFIYLFKSALLVFNALVTMTVFLQVGATTDSLHGNYLMGSLFTALFRLLADGLPELTLTISRLGVFCKQKDLYFYPAWAYAIPSIILKIPLSVLDSFIWTLLTYYVIGYSPEVKRFFLQFLILSTFNLSCVSMFRAIAAIFRTIIASTITGAISILVLSLFGGFVIPKSSMPAWLGWGFWLSPLSYAEIGLTANEFFSPRWSKVISSKTTAGEQMLDIRGLNFGRHSYWTAFGALVGFVLFFNALYVLALTYQNNPQRSRAIISHEKYSRPIEEDFKPCPKITSRAKTGKIILPFKPLTVTFQNVQYYIETPQGKTRQLLSDITGALKPGVLTSLMGVSGAGKTTLLDVLSGRKTRGIIKGEIKVGGYPKVQETFARVSGYCEQFDIHSPNITVEESLKYSAWLRLPYNIDSKTKNELVKEVLETVELDDIKDSVVGLPGISGLSIEQRKRLTIAVELVANPSIIFMDEPTTGLDARAAAIVMRAVKNVAETGRTVVCTIHQPSIDIFETFDELILMKNGGQLVYYGPPGQNSSKVIEYFESFSGLPKIQKNCNPATWILDITSKSAEEKLGIDFSQSYKDSTLYKQNKMVVEQLSSASLGSEALRFPSQFSQTAWVQLKACLWKQHYSYWRNPSHNITRIVFILLDSTLCGLLFWQKAEDINNQQDLISIFGSMYTLVVFPGMNNCAAVINFIAAERNVFYRERFARMYSSWAYSFSQVLIEVPYSLLQSLLCTIIVYPTIGYHMSVYKMFWSLYSIFCSLLIFNYSGMLMVALTPNIHMAVTLRSSFFSMLNLFAGFVIPKQKIPKWWIWMYYLSPTSWVLEGLLSSQYGDVDKEILVFGEKKRVSAFLEDYFGYKHESLAVVAFVLIAYPIIVATLFAFFMSKLSFQKK | no binding
